This assay addresses C-terminal binding protein 2 (CTBP2), endogenous in murine BMDMs (mouse (endogenous in BMDMs)) (UniProt P56546). Kind of assay: affinity purification with mass spectrometry; ChIP-MS: BMDMs treated with LPS (100 ng/ml, 3 h) or vehicle, fixed with 2 mM DSG and 1% formaldehyde, sonicated chromatin precipitated with anti-CTBP2 (#61261; Active Motif) against an IgG control; washes with 140 mM and 500 mM NaCl buffers; enriched: fold change > 4 and Padj < 0.05; n = 3.

Sequences of proteins named here, by UniProt entry; tags and fusion partners are left off.
UniProt P56546: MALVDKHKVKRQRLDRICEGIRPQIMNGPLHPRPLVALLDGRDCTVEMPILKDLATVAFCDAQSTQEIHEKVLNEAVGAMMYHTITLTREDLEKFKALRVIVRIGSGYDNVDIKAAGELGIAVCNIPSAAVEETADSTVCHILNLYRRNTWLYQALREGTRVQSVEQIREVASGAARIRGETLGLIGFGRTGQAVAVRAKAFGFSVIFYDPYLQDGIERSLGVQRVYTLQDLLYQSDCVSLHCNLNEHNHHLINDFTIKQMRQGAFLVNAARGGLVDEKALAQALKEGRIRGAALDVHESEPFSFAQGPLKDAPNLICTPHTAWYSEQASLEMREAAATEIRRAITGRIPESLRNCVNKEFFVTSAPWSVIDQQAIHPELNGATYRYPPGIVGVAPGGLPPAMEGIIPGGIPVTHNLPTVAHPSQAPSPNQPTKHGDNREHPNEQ

These are yes or no findings as the source states them, for the method shown. In cells and extracts the contact can be indirect. Here binding means that the protein was enriched with, or labelled near, the bait; the list need not be complete.

B1: NFΚBIZ (protein, UniProt Q9EST8 1-728)
chain: MIVDKLLDDSRGGEGLLDAAGDCGLMTSPLNLAYFYGASPPSAPGAGDTGYLSAVPSAPGSPGSDSSDFSSTSSVSSCGAVESRPRGGARAERPQVEPHMGVGRQQRGPFQGVRVKNSVKELLLHIRSNKQKASGQPVDEFKTQSVNIEQLTDLKSAVSAVGKRKGPDPLSDGPVCKRPALLPSHFVTSPQTPTPGESMEDVRHSESKLDSSAALLQNIINIKNECNPVSLNTVQVSWMSPTVPQNSPRDQCQDFHGGQAFSPPQKYQPFQVSGSPQMMDQASMYQYSPQTQNMQQPPPLPPQQQHQQNYPHNSPLQFSPYSRMSQSPKYDSNLFDTHEPQFCTGQSFVSLLTGPGEPESLAVPVPAPTSIPPQTETQLQTFSLMPSNACEAVVGVHDVGSHSLGTSLSLQNIMGSPMNTTQLGKSFFQWQVEQEESKLANIPQDQFLARDGDGDTFLHIAVAQGRRALSYVLARKMNALHMLDIKEHNGQSAFQVAVAANQHLIVQDLVNLGAQVNTTDCWGRTPLHVCAEKGHSQVLQAIQKGAVRSNQFVDLEATNYDGLTPLHCAVVAHNAVVHELQRNRQSHSPEVQDLLLRNKSLVDTIKCLIQMGAAVEAKDRKSGRTALHLAAEEANLELIRLFLELPSCLSFVNAKAYNGNTALHVAASLQYRVTQLDAVRLLMRKGADPSTRNLENEQPVHLVPDGPVGEQIRRILKGKSIQQRAPPY
Turning to B1, the binding result is given as “binds”.

B2: JUNB, endogenous in murine BMDMs (protein, UniProt P09450 1-344)
chain: MCTKMEQPFYHDDSYAAAGYGRSPGSLSLHDYKLLKPTLALNLADPYRGLKGPGARGPGPEGSGAGSYFSGQGSDTGASLKLASTELERLIVPNSNGVITTTPTPPGQYFYPRGGGSGGGTGGGVTEEQEGFADGFVKALDDLHKMNHVTPPNVSLGASGGPQAGPGGVYAGPEPPPVYTNLSSYSPASAPSGGSGTAVGTGSSYPTATISYLPHAPPFAGGHPAQLGLSRGASAFKEEPQTVPEARSRDATPPVSPINMEDQERIKVERKRLRNRLAATKCRKRKLERIARLEDKVKTLKAENAGLSSAAGLLREQVAQLKQKVMTHVSNGCQLLLGVKGHAF
As to B2, the binding result was “binds”.

B3: ETV3 (protein, UniProt Q8R4Z4 1-513)
chain: MKAGCSIVEKPEGGGGYQFPDWAYKAESSPGSRQIQLWHFILELLQKEEFRHVIAWQQGEYGEFVIKDPDEVARLWGRRKCKPQMNYDKLSRALRYYYNKRILHKTKGKRFTYKFNFNKLVMPNYPFINIRSSGVVPQSAPPVPTASSRFHFPPLDSHSPTGDVQPGRFSASSLSASGPESGVTTDRKVEPSDLEDGSASDWHRGMDFMPSRNALGGGAVGHQKRKPDILLPLFTRPAMYPDPHSPFAISPVPGRGGVLNVPISPALSLTPTMFSYSPSPGLSPFTSSSCFSFNPEEMKHYLHSQACSVFNYHLSPRTFPRYPGLMVPPLQCQMHPEEPSQFSIKLQPPPAGRKNRERVESREEAVRGSVPASAPVPSRIKVEPATEKDPDSLRQSTQGKEEQTQEVDSMRSRTIEEGKGTGFAHPSPTWPSVSISTPSDEPLEGTEDSEDRSVREPGVPEKKEDALMPPKLRLKRRWNDDPEARELNKTGKFLWNGAGPQGLATTATAAADA
For the molecule B3, the binding result is “binds”.

Values taken from PMC12149670.
